This is one part of the list. The calls rarely recur for the same compound in another form.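 In K562 cells expressing nanoluciferase-fused kinases, luminescence was recorded at 4 h intervals between 2 and 18 h, normalized as percent of control with DMSO at 100% and a positive control at 0%. A significant (2 sigma) signal drop marks a time point as decreased. The authors' rule for a hit is not shown and takes in more than the number of time points.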
What was measured:
Experiment in all cases: kinase-Nluc reporter destabilization hit call (1 = scored as downregulated) (binary); higher = compound decreases kinase abundance
Conditions in all cases: K562; 2-18 h
MAPK1 = MAPK1 (UniProt P28482)
MAPK4 = MAPK4 (UniProt P31152)
MAPKAPK2 = MAPKAPK2 (UniProt P49137)
MKNK1 = MKNK1 (UniProt Q9BUB5)
NTRK2 = NTRK2 (UniProt Q16620)
NTRK3 = NTRK3 (UniProt Q16288)
PAK4 = PAK4 (UniProt O96013)
PBK = PBK (UniProt Q96KB5)
PDGFRB = PDGFRB (UniProt P09619)
PDK1 = PDK1 (UniProt Q15118)
PDPK1 = PDPK1 (UniProt O15530)
PIK4CA = PIK4CA (UniProt P42356)
PIK4CB = PIK4CB (UniProt Q9UBF8)
PLK1 = PLK1 (UniProt P53350)
PRKAA1 = PRKAA1 (UniProt Q13131)
PRKCA = PRKCA (UniProt P17252)
PTK2 = PTK2 (UniProt Q05397)
PTK2B = PTK2B (UniProt Q14289)
RAF1 = RAF1 (UniProt P04049)
[1] = target: RAF1_S257L (clone: RAF1_mut) (UniProt P04049)

The chains behind the UniProt entries cited, without tags or fusion partners. Where a name states a change or a piece, a line headed by the entry shows the natural chain unless it says otherwise.
UniProt Q96KB5: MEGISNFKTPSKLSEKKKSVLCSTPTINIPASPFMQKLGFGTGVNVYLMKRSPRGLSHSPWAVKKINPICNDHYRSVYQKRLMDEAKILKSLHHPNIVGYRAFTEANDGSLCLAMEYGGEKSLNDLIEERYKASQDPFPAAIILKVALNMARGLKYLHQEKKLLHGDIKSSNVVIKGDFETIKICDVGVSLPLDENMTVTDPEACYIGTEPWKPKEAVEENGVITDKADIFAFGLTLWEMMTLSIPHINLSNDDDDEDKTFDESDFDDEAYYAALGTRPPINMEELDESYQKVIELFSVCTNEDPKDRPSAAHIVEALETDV
UniProt Q15118, whole entry, looked up: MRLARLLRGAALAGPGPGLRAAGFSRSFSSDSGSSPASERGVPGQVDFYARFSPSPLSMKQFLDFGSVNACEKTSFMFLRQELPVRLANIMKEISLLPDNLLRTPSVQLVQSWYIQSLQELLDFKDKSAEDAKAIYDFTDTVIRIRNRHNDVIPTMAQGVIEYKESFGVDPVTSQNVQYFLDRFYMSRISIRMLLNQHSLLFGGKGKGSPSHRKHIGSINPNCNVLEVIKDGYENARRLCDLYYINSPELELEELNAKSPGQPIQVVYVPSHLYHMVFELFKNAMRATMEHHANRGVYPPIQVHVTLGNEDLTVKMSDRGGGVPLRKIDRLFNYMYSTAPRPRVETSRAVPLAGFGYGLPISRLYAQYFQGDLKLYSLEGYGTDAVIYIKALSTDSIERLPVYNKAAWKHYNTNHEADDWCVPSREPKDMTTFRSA
UniProt O15530: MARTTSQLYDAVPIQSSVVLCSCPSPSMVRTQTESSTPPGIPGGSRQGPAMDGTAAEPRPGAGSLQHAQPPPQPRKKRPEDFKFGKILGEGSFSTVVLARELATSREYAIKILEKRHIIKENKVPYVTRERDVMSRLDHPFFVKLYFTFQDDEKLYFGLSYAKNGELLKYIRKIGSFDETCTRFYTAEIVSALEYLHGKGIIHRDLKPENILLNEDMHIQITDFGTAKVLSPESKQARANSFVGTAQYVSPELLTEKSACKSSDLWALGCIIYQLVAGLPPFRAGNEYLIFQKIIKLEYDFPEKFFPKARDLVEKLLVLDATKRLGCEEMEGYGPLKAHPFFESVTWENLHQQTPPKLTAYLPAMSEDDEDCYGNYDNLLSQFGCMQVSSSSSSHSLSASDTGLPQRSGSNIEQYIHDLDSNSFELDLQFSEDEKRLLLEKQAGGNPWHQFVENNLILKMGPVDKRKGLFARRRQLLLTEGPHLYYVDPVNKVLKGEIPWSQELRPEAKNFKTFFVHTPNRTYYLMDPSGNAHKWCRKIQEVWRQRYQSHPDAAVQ
UniProt P42356, whole entry, looked up: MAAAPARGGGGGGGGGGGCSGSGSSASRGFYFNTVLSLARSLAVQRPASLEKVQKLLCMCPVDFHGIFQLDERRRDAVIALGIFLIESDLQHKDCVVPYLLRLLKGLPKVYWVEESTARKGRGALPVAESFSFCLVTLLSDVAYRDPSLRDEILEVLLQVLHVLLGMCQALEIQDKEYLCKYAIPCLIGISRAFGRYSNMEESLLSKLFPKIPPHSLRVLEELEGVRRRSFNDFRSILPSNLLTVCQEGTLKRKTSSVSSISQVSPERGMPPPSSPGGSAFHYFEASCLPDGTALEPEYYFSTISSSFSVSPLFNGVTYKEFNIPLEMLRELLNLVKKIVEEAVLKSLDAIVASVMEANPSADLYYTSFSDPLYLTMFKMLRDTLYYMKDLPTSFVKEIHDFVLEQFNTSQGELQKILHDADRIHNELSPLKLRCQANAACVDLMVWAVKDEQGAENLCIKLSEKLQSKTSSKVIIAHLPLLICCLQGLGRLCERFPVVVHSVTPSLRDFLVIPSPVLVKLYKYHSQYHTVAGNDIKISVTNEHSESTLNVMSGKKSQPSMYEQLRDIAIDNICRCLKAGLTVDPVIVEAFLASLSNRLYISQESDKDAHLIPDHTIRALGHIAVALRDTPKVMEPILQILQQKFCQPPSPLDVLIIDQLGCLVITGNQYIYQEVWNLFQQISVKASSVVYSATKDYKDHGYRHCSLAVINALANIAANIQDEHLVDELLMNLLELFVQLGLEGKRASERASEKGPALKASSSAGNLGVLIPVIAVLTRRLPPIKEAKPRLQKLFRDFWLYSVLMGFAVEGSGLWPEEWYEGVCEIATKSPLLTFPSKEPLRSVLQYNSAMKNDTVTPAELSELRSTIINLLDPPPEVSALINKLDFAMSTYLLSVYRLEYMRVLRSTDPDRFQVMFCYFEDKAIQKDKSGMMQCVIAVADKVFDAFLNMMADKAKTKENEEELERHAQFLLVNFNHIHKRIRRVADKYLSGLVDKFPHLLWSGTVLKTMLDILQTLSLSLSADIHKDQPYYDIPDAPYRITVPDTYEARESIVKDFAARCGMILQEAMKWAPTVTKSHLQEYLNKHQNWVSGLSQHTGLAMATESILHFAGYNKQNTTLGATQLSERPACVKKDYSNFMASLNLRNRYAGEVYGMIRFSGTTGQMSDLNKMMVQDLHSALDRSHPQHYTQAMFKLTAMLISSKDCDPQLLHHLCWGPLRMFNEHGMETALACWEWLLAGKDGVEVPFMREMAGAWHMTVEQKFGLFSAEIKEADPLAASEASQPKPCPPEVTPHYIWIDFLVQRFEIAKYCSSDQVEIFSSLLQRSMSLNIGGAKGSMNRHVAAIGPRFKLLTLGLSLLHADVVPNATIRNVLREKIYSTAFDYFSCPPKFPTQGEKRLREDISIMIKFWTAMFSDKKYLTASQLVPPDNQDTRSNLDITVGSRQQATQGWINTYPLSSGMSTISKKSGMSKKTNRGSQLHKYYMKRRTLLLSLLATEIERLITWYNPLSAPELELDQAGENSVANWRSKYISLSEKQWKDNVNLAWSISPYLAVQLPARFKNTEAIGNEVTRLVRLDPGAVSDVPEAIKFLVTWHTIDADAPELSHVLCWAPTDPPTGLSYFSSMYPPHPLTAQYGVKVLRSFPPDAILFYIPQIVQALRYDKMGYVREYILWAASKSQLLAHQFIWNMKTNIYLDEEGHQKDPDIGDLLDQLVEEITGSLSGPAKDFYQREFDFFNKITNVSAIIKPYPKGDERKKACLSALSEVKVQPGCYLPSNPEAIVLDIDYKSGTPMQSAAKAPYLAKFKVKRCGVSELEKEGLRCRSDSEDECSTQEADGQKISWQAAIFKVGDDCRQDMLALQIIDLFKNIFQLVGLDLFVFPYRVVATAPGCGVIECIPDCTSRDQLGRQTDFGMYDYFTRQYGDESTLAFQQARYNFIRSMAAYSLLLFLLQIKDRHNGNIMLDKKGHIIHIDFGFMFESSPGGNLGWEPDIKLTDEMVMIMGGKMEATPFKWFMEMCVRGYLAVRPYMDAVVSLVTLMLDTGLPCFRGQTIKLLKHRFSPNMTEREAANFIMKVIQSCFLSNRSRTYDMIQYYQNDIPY
UniProt Q9UBF8: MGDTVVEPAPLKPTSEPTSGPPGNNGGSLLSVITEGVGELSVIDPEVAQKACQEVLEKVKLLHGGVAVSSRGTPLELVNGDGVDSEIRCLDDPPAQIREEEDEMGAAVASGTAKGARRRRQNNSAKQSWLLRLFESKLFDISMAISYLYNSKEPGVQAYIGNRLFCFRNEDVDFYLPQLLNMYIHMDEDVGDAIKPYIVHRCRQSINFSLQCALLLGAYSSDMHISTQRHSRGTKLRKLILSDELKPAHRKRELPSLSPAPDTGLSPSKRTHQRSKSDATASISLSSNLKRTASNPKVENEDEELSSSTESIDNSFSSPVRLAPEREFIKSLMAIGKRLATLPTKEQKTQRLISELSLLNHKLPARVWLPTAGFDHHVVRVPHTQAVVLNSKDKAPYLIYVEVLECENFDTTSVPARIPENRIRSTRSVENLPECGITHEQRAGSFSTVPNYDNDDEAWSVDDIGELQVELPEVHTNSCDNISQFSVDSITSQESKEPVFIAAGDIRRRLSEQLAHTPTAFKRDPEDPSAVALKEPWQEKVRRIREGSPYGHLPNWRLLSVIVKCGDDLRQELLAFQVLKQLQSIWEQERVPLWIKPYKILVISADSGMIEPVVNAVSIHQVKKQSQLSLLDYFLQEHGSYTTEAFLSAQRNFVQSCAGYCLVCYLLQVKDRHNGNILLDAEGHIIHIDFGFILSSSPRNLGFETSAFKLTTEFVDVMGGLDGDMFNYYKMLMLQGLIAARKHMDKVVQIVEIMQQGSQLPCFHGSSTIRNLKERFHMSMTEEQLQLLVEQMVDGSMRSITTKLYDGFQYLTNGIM
UniProt Q05397, whole entry, looked up: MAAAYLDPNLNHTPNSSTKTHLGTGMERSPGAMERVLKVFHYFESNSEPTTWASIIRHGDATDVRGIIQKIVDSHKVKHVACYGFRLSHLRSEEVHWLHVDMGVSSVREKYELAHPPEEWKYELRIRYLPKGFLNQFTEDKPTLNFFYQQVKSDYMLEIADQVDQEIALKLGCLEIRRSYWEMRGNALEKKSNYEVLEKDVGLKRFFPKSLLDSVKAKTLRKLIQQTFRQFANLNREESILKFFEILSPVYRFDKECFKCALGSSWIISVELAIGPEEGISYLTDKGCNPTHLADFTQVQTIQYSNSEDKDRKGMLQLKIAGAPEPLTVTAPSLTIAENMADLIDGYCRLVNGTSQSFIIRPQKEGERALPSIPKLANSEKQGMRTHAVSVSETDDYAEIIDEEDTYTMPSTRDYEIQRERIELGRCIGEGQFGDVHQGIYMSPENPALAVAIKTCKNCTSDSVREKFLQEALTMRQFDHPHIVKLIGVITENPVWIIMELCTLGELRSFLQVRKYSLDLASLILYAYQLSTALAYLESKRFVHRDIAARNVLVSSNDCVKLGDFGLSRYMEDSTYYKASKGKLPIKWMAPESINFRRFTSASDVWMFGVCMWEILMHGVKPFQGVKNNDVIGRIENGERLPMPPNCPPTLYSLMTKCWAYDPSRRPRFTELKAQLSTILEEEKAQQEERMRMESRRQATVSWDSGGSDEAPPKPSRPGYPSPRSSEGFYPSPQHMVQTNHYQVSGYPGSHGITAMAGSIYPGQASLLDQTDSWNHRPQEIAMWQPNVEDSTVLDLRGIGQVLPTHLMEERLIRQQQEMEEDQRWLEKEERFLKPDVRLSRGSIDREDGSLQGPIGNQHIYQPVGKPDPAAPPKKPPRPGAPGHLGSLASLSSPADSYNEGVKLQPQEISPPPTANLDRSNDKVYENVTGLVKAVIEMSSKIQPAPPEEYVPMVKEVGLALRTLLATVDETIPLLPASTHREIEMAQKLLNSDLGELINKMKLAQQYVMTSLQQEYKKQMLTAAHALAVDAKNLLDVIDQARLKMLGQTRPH
UniProt Q14289, whole entry, looked up: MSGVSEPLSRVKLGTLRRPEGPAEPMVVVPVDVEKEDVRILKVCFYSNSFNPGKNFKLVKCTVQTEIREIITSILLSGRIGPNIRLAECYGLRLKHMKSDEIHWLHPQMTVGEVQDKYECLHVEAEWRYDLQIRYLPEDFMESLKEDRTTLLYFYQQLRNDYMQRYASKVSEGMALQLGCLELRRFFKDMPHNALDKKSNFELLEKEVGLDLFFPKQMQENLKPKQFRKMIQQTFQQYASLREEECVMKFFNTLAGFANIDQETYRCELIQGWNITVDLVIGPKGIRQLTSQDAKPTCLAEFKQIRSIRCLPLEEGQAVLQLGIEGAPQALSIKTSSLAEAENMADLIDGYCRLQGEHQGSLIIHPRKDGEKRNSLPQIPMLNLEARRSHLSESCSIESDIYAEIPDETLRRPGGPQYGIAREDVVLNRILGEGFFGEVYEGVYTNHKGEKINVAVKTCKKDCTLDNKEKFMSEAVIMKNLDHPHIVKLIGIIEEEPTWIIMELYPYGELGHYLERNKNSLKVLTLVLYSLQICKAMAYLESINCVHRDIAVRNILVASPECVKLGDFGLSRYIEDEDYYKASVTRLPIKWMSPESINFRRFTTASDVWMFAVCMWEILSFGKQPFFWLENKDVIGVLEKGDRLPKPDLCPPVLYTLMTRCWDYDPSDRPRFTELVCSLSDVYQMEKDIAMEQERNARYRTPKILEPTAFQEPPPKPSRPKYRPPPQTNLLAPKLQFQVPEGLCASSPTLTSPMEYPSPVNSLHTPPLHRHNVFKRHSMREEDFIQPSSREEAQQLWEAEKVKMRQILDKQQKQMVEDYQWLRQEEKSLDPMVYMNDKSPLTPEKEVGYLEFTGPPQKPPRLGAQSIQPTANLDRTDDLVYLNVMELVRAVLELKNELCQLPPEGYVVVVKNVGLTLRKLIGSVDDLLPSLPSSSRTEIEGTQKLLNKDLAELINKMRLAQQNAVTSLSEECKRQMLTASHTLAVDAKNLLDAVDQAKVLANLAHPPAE

Measured: kinase-Nluc reporter destabilization hit call

Nc1cc(C(F)(F)F)c(-c2nc(N3CCOCC3)nc(N3CCOCC3)n2)cn1 [Bimiralisib] (10 µM)
inactive: MAPK1 = 0 | MAPK4 = 0 | MAPKAPK2 = 0 | MKNK1 = 0 | NTRK2 = 0 | NTRK3 = 0 | PAK4 = 0 | PBK 0 | PDGFRB 0 | PDK1 = 0 | PDPK1 = 0 | PIK4CA 0 | PIK4CB 0 | PLK1 = 0 | PRKAA1 = 0 | PRKCA 0 | PTK2 = 0 | PTK2B 0 | RAF1 = 0 | [1] 0

CC1(COc2ccc3c(c2)ncn3-c2ccc3cccc(N4CCC(N)CC4)c3n2)COC1 [Crenolanib] (2.5 µM)
inactive: MAPK1 = 0 | MAPK4 = 0 | MAPKAPK2 = 0 | MKNK1 = 0 | NTRK2 = 0 | NTRK3 = 0 | PAK4 = 0 | PBK 0 | PDGFRB 0 | PDK1 = 0 | PDPK1 = 0 | PIK4CA 0 | PIK4CB 0 | PLK1 = 0 | PRKAA1 = 0 | PRKCA 0 | PTK2 = 0 | PTK2B 0 | RAF1 = 0 | [1] 0

COc1cc(-c2cc(-c3cc(OC)c(OC)c(OC)c3)cc(C(F)P(=O)(OCOC(=O)C(C)(C)C)OCOC(=O)C(C)(C)C)c2)cc(OC)c1OC (stereo not given) [Stafia-1-dipivaloyloxymethyl ester] (2.5 µM)
inactive: MAPK1 = 0 | MAPK4 = 0 | MAPKAPK2 = 0 | MKNK1 = 0 | NTRK2 = 0 | NTRK3 = 0 | PAK4 = 0 | PBK 0 | PDGFRB 0 | PDK1 = 0 | PDPK1 = 0 | PIK4CA 0 | PIK4CB 0 | PLK1 = 0 | PRKAA1 = 0 | PRKCA 0 | PTK2 = 0 | PTK2B 0 | RAF1 = 0 | [1] 0

CNC(=O)c1cc(Oc2ccc3nc(N[C@@H]4CCCC[C@H]4O)sc3c2)ccn1 (10 µM)
inactive: MAPK1 = 0 | MAPK4 = 0 | MAPKAPK2 = 0 | MKNK1 = 0 | NTRK2 = 0 | NTRK3 = 0 | PAK4 = 0 | PBK 0 | PDGFRB 0 | PDK1 = 0 | PDPK1 = 0 | PIK4CA 0 | PIK4CB 0 | PLK1 = 0 | PRKAA1 = 0 | PRKCA 0 | PTK2 = 0 | PTK2B 0 | RAF1 = 0 | [1] 0

CC(C)(O)[C@@H]1CC[C@](C)([C@H]2[C@@H](O)C[C@@]3(C)[C@@H]4C[C@H](O[C@@H]5O[C@H](CO)[C@@H](O)[C@H](O)[C@H]5O)[C@H]5C(C)(C)[C@@H](O[C@@H]6OC[C@@H](O)[C@H](O)[C@H]6O[C@@H]6O[C@H](CO)[C@@H](O)[C@H](O)[C@H]6O)CC[C@@]56C[C@@]46CC[C@]23C)O1 [Astragaloside VI] (10 µM)
inactive: MAPK1 = 0 | MAPK4 = 0 | MAPKAPK2 = 0 | MKNK1 = 0 | NTRK2 = 0 | NTRK3 = 0 | PAK4 = 0 | PBK 0 | PDGFRB 0 | PDK1 = 0 | PDPK1 = 0 | PIK4CA 0 | PIK4CB 0 | PLK1 = 0 | PRKAA1 = 0 | PRKCA 0 | PTK2 = 0 | PTK2B 0 | RAF1 = 0 | [1] 0

O=c1nc(N2CCOCC2)oc2c(-c3cccc4c3sc3ccccc34)cccc12 (10 µM)
inactive: MAPK1 = 0 | MAPK4 = 0 | MAPKAPK2 = 0 | MKNK1 = 0 | NTRK2 = 0 | NTRK3 = 0 | PAK4 = 0 | PBK 0 | PDGFRB 0 | PDK1 = 0 | PDPK1 = 0 | PIK4CA 0 | PIK4CB 0 | PLK1 = 0 | PRKAA1 = 0 | PRKCA 0 | PTK2 = 0 | PTK2B 0 | RAF1 = 0 | [1] 0

Two compounds drawn at random from those above, as already listed:
O=c1nc(N2CCOCC2)oc2c(-c3cccc4c3sc3ccccc34)cccc12 (10 µM)
inactive: MAPK1 = 0 | MAPK4 = 0 | MAPKAPK2 = 0 | MKNK1 = 0 | NTRK2 = 0 | NTRK3 = 0 | PAK4 = 0 | PBK 0 | PDGFRB 0 | PDK1 = 0 | PDPK1 = 0 | PIK4CA 0 | PIK4CB 0 | PLK1 = 0 | PRKAA1 = 0 | PRKCA 0 | PTK2 = 0 | PTK2B 0 | RAF1 = 0 | [1] 0

COc1cc(-c2cc(-c3cc(OC)c(OC)c(OC)c3)cc(C(F)P(=O)(OCOC(=O)C(C)(C)C)OCOC(=O)C(C)(C)C)c2)cc(OC)c1OC (stereo not given) [Stafia-1-dipivaloyloxymethyl ester] (2.5 µM)
inactive: MAPK1 = 0 | MAPK4 = 0 | MAPKAPK2 = 0 | MKNK1 = 0 | NTRK2 = 0 | NTRK3 = 0 | PAK4 = 0 | PBK 0 | PDGFRB 0 | PDK1 = 0 | PDPK1 = 0 | PIK4CA 0 | PIK4CB 0 | PLK1 = 0 | PRKAA1 = 0 | PRKCA 0 | PTK2 = 0 | PTK2B 0 | RAF1 = 0 | [1] 0

(more compounds)

COC(=O)N[C@@H](C)CNc1nccc(-c2cn(C(C)C)nc2-c2cc(Cl)cc(NS(C)(=O)=O)c2F)n1 [Encorafenib] (10 µM)
inactive: MAPK1 = 0 | MAPK4 = 0 | MAPKAPK2 = 0 | MKNK1 = 0 | NTRK2 = 0 | NTRK3 = 0 | PAK4 = 0 | PBK 0 | PDGFRB 0 | PDK1 = 0 | PDPK1 = 0 | PIK4CA 0 | PIK4CB 0 | PLK1 = 0 | PRKAA1 = 0 | PRKCA 0 | PTK2 = 0 | PTK2B 0 | RAF1 = 0 | [1] 0

C[C@@H]1CCc2ncc(F)cc2[C@H]2CCCN2c2ccn3ncc(c3n2)C(=O)N1 [Selitrectinib] (10 µM)
inactive: MAPK1 = 0 | MAPK4 = 0 | MAPKAPK2 = 0 | MKNK1 = 0 | NTRK2 = 0 | NTRK3 = 0 | PAK4 = 0 | PBK 0 | PDGFRB 0 | PDK1 = 0 | PDPK1 = 0 | PIK4CA 0 | PIK4CB 0 | PLK1 = 0 | PRKAA1 = 0 | PRKCA 0 | PTK2 = 0 | PTK2B 0 | RAF1 = 0 | [1] 0

O=C(O)c1cc(O)c2c(c1)[C@@H]([C@H]1c3cc(C(=O)O)cc(O)c3C(=O)c3c(O[C@@H]4O[C@H](CO)[C@@H](O)[C@H](O)[C@H]4O)cccc31)c1cccc(O[C@@H]3O[C@H](CO)[C@@H](O)[C@H](O)[C@H]3O)c1C2=O [Sennoside B] (2.5 µM)
inactive: MAPK1 = 0 | MAPK4 = 0 | MAPKAPK2 = 0 | MKNK1 = 0 | NTRK2 = 0 | NTRK3 = 0 | PAK4 = 0 | PBK 0 | PDGFRB 0 | PDK1 = 0 | PDPK1 = 0 | PIK4CA 0 | PIK4CB 0 | PLK1 = 0 | PRKAA1 = 0 | PRKCA 0 | PTK2 = 0 | PTK2B 0 | RAF1 = 0 | [1] 0

CC(C)(C)c1cc(C(c2cc3c(cc2O)OCO3)N2CCOCC2)cc(C(C)(C)C)c1O (stereo not given) (2.5 µM)
inactive: MAPK1 = 0 | MAPK4 = 0 | MAPKAPK2 = 0 | MKNK1 = 0 | NTRK2 = 0 | NTRK3 = 0 | PAK4 = 0 | PBK 0 | PDGFRB 0 | PDK1 = 0 | PDPK1 = 0 | PIK4CA 0 | PIK4CB 0 | PLK1 = 0 | PRKAA1 = 0 | PRKCA 0 | PTK2 = 0 | PTK2B 0 | RAF1 = 0 | [1] 0

CC(=O)NCCc1c[nH]c2ccc(O)cc12 [N-Acetyl-5-hydroxytryptamine] (10 µM)
inactive: MAPK1 = 0 | MAPK4 = 0 | MAPKAPK2 = 0 | MKNK1 = 0 | NTRK2 = 0 | NTRK3 = 0 | PAK4 = 0 | PBK 0 | PDGFRB 0 | PDK1 = 0 | PDPK1 = 0 | PIK4CA 0 | PIK4CB 0 | PLK1 = 0 | PRKAA1 = 0 | PRKCA 0 | PTK2 = 0 | PTK2B 0 | RAF1 = 0 | [1] 0

O=C(Nc1ccc(Cl)c(Cl)c1)Nc1ccc2nnsc2c1 (10 µM)
inactive: MAPK1 = 0 | MAPK4 = 0 | MAPKAPK2 = 0 | MKNK1 = 0 | NTRK2 = 0 | NTRK3 = 0 | PAK4 = 0 | PBK 0 | PDGFRB 0 | PDK1 = 0 | PDPK1 = 0 | PIK4CA 0 | PIK4CB 0 | PLK1 = 0 | PRKAA1 = 0 | PRKCA 0 | PTK2 = 0 | PTK2B 0 | RAF1 = 0 | [1] 0

Nc1cccc(S(=O)(=O)N2CCCN(S(=O)(=O)c3ccc4c(c3)OCCO4)CC2)c1 (10 µM)
inactive: MAPK1 = 0 | MAPK4 = 0 | MAPKAPK2 = 0 | MKNK1 = 0 | NTRK2 = 0 | NTRK3 = 0 | PAK4 = 0 | PBK 0 | PDGFRB 0 | PDK1 = 0 | PDPK1 = 0 | PIK4CA 0 | PIK4CB 0 | PLK1 = 0 | PRKAA1 = 0 | PRKCA 0 | PTK2 = 0 | PTK2B 0 | RAF1 = 0 | [1] 0

C[C@H]1[C@H](OC(=O)CCC(=O)O)O[C@@H]2O[C@@]3(C)CC[C@H]4[C@H](C)CC[C@@H]1[C@@]24OO3 [Artesunate] (2.5 µM)
inactive: MAPK1 = 0 | MAPK4 = 0 | MAPKAPK2 = 0 | MKNK1 = 0 | NTRK2 = 0 | NTRK3 = 0 | PAK4 = 0 | PBK 0 | PDGFRB 0 | PDK1 = 0 | PDPK1 = 0 | PIK4CA 0 | PIK4CB 0 | PLK1 = 0 | PRKAA1 = 0 | PRKCA 0 | PTK2 = 0 | PTK2B 0 | RAF1 = 0 | [1] 0

CN(C)Cc1cccc(N=C(c2ccccc2)c2c(O)[nH]c3cc(C(N)=O)ccc23)c1 (10 µM)
inactive: MAPK1 = 0 | MAPK4 = 0 | MAPKAPK2 = 0 | MKNK1 = 0 | NTRK2 = 0 | NTRK3 = 0 | PAK4 = 0 | PBK 0 | PDGFRB 0 | PDK1 = 0 | PDPK1 = 0 | PIK4CA 0 | PIK4CB 0 | PLK1 = 0 | PRKAA1 = 0 | PRKCA 0 | PTK2 = 0 | PTK2B 0 | RAF1 = 0 | [1] 0

C=CC(=O)Nc1cccc(-n2c(=O)cc(C)c3cnc(Nc4ccc(OCCN(C)C)cc4OC)nc32)c1 (10 µM)
inactive: MAPK1 = 0 | MAPK4 = 0 | MAPKAPK2 = 0 | MKNK1 = 0 | NTRK2 = 0 | NTRK3 = 0 | PAK4 = 0 | PBK 0 | PDGFRB 0 | PDK1 = 0 | PDPK1 = 0 | PIK4CA 0 | PIK4CB 0 | PLK1 = 0 | PRKAA1 = 0 | PRKCA 0 | PTK2 = 0 | PTK2B 0 | RAF1 = 0 | [1] 0

O=C1NC(=O)C(c2cnc3ccccn23)=C1c1cn2c3c(cc(F)cc13)CN(C(=O)N1CCCCC1)CC2 (2.5 µM)
inactive: MAPK1 = 0 | MAPK4 = 0 | MAPKAPK2 = 0 | MKNK1 = 0 | NTRK2 = 0 | NTRK3 = 0 | PAK4 = 0 | PBK 0 | PDGFRB 0 | PDK1 = 0 | PDPK1 = 0 | PIK4CA 0 | PIK4CB 0 | PLK1 = 0 | PRKAA1 = 0 | PRKCA 0 | PTK2 = 0 | PTK2B 0 | RAF1 = 0 | [1] 0

From the supplement of paper PMC12823440, “Inhibitors supercharge kinase turnover through native proteolytic circuits” (Nature, 2025)
